The match of structure and compound is tentative.

Protein sequences, listed by entry. Tags and fused reporters are not part of them. Residues count along the entry.
UniProt P18031, 1-299 limits assumed: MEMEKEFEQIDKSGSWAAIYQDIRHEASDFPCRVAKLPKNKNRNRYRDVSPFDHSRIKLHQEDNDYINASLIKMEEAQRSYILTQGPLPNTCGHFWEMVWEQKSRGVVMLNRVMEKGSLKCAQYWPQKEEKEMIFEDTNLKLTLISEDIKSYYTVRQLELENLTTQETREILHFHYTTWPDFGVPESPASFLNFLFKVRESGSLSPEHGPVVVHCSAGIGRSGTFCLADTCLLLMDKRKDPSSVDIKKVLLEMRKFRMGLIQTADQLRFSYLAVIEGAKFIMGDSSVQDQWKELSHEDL

The IC50 is the concentration at which inhibition is half-maximal.

The assay addresses recombinant human PTP1B (Homo sapiens, UniProt P18031). The assay can be described thus: Inhibiting phosphotyrosine phosphatase 1B (PTP1B), in-vitro phosphatase assay. It is filed as biochemical. To be noted: Table 2 Biological activity; substrate variant (phosphopeptide, p-nitrophenyl phosphate or DIFMUP) not stated. The text has this: Inhibiting Phosphotyrosine Phosphatase 1B (PTP1B)
The setting up and implementation of an in-vitro assay for detecting a phosphatase-inhibiting effect of the compounds according to the invention are described below. The isolation of the enzyme preparation and the implementation of the assay are described. […]
This assay is based on releasing phosphate from a consensus substrate peptide which is detected in the nanomolar concentration range using the malachite green/ammonium molybdate method (Lanzetta, P. A., Alvarez, L. J., Reinach, P. S., Candia, O. A. Anal Biochem. 100: 95-97, 1979) as adapted for the microtiter plate format. […] After incubating at 22° C. for 30 min, in order to develop the color, the absorption at 650 nm was determined using a microtiter plate reader (Molecular Devices). Samples and blanks were measured in triplicate. The PTP1B activity was calculated as nanomoles of phosphate released per min and mg of protein using potassium phosphate as the standard. The inhibition of the recombinant hPTP1B by test substances was calculated as percentages of the phosphatase control. […]

On to `CCn1nc(-c2cccc(Oc3ccccc3)c2)nc2c(=O)n(C)c(=O)nc1-2` [6], for which the half-maximal inhibitory concentration (IC50) is 440 nM.

Source of the values: patent publication US7737144B2, “Pyrimido[5,4-e][1,2,4]triazine-5-7-diones, processes for preparing them and their use” (Sanofi-Aventis Deutschland GmbH, priority 2003, dated 2010).
